Laboratory results taken from patent EP4768505A1 (Shenzhen Genocury Biotech Co., Ltd, dated 2026).
These are yes or no findings as the source states them, for the method shown. Some results given as binding are weak or reduced against the parent protein; the word gives no strength.

The chains behind the UniProt entries cited, without tags or fusion partners. Residues count along the entry.
UniProt P40259, residues 29-229: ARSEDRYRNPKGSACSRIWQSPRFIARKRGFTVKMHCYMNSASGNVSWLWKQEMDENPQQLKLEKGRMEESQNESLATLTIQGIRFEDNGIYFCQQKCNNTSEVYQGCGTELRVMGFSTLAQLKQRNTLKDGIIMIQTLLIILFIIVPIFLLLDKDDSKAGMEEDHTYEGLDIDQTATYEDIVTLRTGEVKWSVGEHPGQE

Experiments:
human CD79B antigen [1] = biological target: T1, human CD79B antigen (a full-length protein containing signal peptide, UniProt ID: P40259) on cells (human) (UniProt P40259); test: flow cytometry on HEK-293T cells overexpressing CD79B-GFP, 0.1 mg/mL, APC-His tag antibody
human CD79B antigen [2] = biological target: T1, human CD79B antigen; test: flow cytometry, legend of FIG. 1

B1: anti-CD79B single-domain antibody JYB8 (VHH, not shown: small tags and cut ends)
VHH: DVQLQESGGGLMQPGGSLSLTCTASISSLSIWVRAWHRQAPGKQRELVAAINSDGQTMYADSVKGRFTISRDSAKTTVSLQMDSLKPEDTAVYYCNVVTPKGQQYWGQGTQVTVSS
B1 was tested, and the binding (human CD79B antigen [1]) was “binds” and the binding (human CD79B antigen [2]) was “binds”.
